Binding data for four molecules are collected here from article PMC10049297.

By UniProt entry, the sequences of proteins in these tests, tags left out.
UniProt Q86WV6: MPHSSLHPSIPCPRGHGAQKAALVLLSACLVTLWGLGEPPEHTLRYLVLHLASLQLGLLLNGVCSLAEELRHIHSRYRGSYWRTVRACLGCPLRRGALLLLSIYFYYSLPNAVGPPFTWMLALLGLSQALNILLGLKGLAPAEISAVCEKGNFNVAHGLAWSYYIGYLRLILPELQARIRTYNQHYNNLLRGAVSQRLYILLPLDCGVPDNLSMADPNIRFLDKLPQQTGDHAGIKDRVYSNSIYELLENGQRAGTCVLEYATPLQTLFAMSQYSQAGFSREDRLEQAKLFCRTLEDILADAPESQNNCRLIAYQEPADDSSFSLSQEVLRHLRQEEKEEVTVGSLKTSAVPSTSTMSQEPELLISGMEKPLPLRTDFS
UniProt Q8N884: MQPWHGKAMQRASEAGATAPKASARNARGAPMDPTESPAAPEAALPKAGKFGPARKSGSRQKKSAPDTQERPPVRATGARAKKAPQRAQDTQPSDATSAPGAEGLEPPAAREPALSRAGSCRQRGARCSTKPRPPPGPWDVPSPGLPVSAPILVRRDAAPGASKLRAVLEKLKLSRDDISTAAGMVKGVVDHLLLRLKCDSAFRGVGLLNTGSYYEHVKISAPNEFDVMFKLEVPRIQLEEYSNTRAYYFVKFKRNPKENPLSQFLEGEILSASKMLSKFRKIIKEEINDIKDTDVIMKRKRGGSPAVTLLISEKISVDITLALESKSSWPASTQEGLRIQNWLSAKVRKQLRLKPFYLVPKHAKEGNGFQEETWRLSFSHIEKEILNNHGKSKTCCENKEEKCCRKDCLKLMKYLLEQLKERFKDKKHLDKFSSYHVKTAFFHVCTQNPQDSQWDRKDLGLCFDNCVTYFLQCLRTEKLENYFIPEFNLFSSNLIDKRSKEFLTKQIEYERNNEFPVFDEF
UniProt P42224: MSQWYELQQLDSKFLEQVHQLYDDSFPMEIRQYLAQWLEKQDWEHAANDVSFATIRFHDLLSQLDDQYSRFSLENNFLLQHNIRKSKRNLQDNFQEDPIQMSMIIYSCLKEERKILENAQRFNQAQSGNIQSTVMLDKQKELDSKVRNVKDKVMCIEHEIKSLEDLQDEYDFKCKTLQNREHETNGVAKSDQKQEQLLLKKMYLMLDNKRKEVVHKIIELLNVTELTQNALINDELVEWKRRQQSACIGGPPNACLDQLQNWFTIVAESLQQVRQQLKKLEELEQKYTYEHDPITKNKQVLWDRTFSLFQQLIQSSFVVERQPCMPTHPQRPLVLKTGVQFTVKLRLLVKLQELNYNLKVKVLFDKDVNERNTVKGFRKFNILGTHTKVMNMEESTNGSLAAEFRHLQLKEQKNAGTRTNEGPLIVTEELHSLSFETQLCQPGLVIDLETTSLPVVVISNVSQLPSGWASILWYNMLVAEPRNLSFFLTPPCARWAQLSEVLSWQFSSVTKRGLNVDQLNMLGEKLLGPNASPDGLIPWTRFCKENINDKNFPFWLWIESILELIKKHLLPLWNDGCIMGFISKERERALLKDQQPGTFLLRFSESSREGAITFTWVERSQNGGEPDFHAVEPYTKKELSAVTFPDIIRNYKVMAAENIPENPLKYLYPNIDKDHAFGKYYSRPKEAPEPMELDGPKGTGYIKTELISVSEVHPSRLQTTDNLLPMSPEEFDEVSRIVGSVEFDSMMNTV
UniProt P52630: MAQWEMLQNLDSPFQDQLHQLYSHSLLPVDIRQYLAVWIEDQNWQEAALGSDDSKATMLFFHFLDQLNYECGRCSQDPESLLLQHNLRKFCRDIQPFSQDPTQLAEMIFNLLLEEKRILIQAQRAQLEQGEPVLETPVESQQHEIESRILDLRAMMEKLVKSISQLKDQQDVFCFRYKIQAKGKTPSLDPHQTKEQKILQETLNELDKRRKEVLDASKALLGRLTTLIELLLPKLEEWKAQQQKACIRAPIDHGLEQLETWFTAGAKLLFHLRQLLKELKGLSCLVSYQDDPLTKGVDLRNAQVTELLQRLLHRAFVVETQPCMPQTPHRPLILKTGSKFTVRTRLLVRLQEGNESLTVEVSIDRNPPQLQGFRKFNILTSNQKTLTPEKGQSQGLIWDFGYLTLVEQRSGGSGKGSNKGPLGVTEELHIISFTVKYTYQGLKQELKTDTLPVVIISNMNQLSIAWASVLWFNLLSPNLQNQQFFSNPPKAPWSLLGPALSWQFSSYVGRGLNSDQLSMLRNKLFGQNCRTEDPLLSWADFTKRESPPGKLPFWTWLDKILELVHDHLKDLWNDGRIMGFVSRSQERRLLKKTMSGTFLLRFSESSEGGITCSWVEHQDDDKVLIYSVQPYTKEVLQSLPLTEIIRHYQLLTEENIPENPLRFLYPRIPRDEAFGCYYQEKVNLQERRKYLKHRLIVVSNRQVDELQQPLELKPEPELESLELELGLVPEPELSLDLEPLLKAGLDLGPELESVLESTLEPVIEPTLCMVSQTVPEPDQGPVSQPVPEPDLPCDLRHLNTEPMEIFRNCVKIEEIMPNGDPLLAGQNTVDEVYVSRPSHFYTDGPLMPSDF

These are yes or no findings as the source states them, for the method shown. In cells and extracts the contact can be indirect. Some results given as binding are weak or reduced against the parent protein; the word gives no strength. Sequences can lack the tags named with a protein.

In experiment [1] the target is T1, HA-SerpinA5 (human) (UniProt P05154).
T1 sequence: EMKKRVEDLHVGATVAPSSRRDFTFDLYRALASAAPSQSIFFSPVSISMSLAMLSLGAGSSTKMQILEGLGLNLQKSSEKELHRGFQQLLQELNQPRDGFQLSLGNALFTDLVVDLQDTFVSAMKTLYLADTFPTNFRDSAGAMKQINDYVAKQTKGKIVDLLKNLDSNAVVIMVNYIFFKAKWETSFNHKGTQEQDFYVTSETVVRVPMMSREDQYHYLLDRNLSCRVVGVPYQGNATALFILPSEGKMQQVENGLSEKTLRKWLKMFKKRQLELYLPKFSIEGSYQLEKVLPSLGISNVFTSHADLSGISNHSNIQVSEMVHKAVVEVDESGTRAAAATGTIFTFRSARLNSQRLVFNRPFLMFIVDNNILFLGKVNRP
Put plainly: co-IP; HEK293T cells transfected with HA-SerpinA5 or empty vector for 36 h; lysates immunoprecipitated with anti-HA tag antibody; blots with antibodies against endogenous STAT1, STAT2, IRF9; wash buffer 50 mM Tris pH 7.4, 500 mM NaCl, 0.1% NP-40, 1 mM EDTA.

The target in experiment [2] is T2, HA-tagged IRF3 (UniProt Q14653).
T2 sequence: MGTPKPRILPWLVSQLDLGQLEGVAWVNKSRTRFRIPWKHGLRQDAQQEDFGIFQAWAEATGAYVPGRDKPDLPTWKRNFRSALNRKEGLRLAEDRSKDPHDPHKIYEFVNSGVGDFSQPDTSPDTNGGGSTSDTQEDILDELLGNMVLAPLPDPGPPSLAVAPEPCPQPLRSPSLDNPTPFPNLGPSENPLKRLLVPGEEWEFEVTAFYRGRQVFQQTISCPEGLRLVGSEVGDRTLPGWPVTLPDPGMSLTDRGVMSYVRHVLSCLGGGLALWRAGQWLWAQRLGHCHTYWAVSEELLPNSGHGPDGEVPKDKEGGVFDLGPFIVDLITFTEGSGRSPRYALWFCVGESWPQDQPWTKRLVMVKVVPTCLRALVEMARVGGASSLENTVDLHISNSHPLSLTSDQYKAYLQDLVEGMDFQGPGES
Put plainly: co-IP; HEK-293T cells co-transfected with FLAG-SerpinA5 and HA-tagged cGAS, STING, TBK1, IRF3 or IRF7 for 36 h; lysates (NP40 lysis buffer) immunoprecipitated with anti-HA antibody, Western blot; wash buffer 50 mM Tris pH 7.4, 500 mM NaCl, 0.1% NP-40, 1 mM EDTA.

The target of experiment [3] is T3, HA-tagged IRF7 (UniProt Q92985).
T3 sequence: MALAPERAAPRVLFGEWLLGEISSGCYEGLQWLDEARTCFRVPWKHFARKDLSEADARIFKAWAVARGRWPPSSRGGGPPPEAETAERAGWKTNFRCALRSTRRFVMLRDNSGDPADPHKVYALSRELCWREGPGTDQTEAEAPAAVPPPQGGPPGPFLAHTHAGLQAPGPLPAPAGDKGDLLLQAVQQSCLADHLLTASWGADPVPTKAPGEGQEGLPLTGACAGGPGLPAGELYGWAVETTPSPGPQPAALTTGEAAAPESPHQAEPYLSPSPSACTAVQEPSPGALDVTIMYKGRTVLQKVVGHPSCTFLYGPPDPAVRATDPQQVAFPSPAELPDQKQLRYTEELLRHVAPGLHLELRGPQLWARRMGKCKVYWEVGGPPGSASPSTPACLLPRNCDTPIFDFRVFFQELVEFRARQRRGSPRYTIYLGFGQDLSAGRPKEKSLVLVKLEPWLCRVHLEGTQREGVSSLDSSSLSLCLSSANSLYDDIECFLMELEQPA
The experiment is described as above.

The target in experiment [4] is HA-tagged STING (UniProt Q86WV6). Described as above.
Experiment [5] concerns the target T4, HA-tagged TBK1 (UniProt Q9UHD2).
T4 sequence: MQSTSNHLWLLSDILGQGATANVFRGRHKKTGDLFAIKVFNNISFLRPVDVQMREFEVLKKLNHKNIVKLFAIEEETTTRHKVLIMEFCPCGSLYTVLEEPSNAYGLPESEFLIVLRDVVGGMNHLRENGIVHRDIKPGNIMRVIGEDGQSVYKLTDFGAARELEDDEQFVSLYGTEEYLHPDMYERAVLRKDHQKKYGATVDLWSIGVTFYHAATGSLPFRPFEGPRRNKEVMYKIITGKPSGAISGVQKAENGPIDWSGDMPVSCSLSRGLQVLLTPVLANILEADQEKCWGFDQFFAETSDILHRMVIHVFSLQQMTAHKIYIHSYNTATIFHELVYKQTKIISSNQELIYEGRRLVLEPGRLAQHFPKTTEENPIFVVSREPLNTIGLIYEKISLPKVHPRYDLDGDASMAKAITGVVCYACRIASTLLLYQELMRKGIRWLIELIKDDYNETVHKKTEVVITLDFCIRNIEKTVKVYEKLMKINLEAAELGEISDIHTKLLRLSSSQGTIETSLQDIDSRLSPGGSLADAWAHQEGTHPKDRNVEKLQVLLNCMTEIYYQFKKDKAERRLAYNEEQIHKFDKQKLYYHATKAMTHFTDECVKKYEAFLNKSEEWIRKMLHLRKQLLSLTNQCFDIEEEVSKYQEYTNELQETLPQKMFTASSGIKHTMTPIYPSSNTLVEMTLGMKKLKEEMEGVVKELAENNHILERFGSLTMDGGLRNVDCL
Described as above.

Experiment [6] concerns the target HA-tagged cGAS (UniProt Q8N884). The description is as above.

Take STAT1 (from UniProt P42224 1-750): the binding entry in experiment [1] is “binds”.

Consider STAT2 (from UniProt P52630 1-851), for which the binding entry in experiment [1] is on record as “no binding”.

B1: FLAG-SerpinA5 (human serpin peptidase inhibitor clade A member 5) (protein, UniProt P05154 26-406)
chain: T1 sequence
B1: the binding result in experiment [2], in experiment [3], in experiment [4], in experiment [5] and in experiment [6] was “no binding” in each case.

B2: IRF9 (protein, UniProt Q00978 1-393)
chain: MASGRARCTRKLRNWVVEQVESGQFPGVCWDDTAKTMFRIPWKHAGKQDFREDQDAAFFKAWAIFKGKYKEGDTGGPAVWKTRLRCALNKSSEFKEVPERGRMDVAEPYKVYQLLPPGIVSGQPGTQKVPSKRQHSSVSSERKEEEDAMQNCTLSPSVLQDSLNNEEEGASGGAVHSDIGSSSSSSSPEPQEVTDTTEAPFQGDQRSLEFLLPPEPDYSLLLTFIYNGRVVGEAQVQSLDCRLVAEPSGSESSMEQVLFPKPGPLEPTQRLLSQLERGILVASNPRGLFVQRLCPIPISWNAPQAPPGPGPHLLPSNECVELFRTAYFCRDLVRYFQGLGPPPKFQVTLNFWEESHGSSHTPQNLITVKMEQAFARYLLEQTPEQQAAILSLV
Consider B2, for which the binding entry in experiment [1] is on record as “no binding”.
